Laboratory results: PMC12827253

Biological target: Flag-tagged RIPK3 ΔRHIM mutant
Assay: co-IP; anti-FLAG agarose beads, 4 h at 4 °C, 5 washes in lysis buffer (120 mM NaCl, 2 mM KCl, 10% glycerol, 2 mM EDTA, 1% Triton X-100, 30 mM Tris-HCl pH 7.4); lysates of transfected HEK293T cells, with or without GADD45β (transfected or Dox-induced); also NEMO-KO cells (Supplementary Fig. S2b)

B1: HA-tagged GADD45β (protein, UniProt P22339 1-160)
chain: MTLEELVASDNAVQKMQAVTAAVEQLLVAAQRQDRLTVGVYEAAKLMNVDPDSVVLCLLAIDEEEEDDIALQIHFTLIQSFCCDNDIDIVRVSGMQRLAQLLGEPAETLGTTEARDLHCLLVTNCHTDSWKSQGLVEVASYCEESRGNNQWVPYISLEER
binding: binds

No constants are given. Whether binding was seen depends on the method and setting. Binding seen in cells or lysates may run through a third protein. Binding can be weak; no strength is given. Tags and fused reporters may be left off the sequences shown.
